Measured values from the supplement of paper PMC12024529.
Where a name gives a salt, the structure may show the parent alone. This is one part of the list. Part of the spread comes from offsets between plates or batches.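 HEK293 lines stably express B-domain-deleted factor VIII fused to Gaussia luciferase, wild type or a misfolding-prone missense mutant. Scores equal triplicate-well mean luminescence minus DMSO mean, divided by DMSO standard deviation; scores of 2 or higher are hits. Low scores may indicate reduced secretion or worse cell viability.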

Assays:
HEK293 WT BDD-FVIII-Gluc = assay: secreted FVIII-Gluc luciferase Z-score vs DMSO control; higher = more FVIII-Gluc secretion; conditions: 5 µM; 24 h
[1] = tested on: HEK293 p.N1941S BDD-FVIII-Gluc; assay: as above; conditions: 5 µM; 24 h

| Structure (SMILES) | secreted FVIII-Gluc luciferase Z-score (HEK293 WT BDD-FVIII-Gluc) | secreted FVIII-Gluc luciferase Z-score [1] |
| --- | --- | --- |
| CCCN[C@H]1CCc2nc(N)sc2C1 [Pramipexole (Mirapex)] | inactive: -1.76 | inactive: -0.887 |
| C[C@@H](O)[C@H]1C(=O)N2C(C(=O)OCOC(=O)C(C)(C)C)=C(SC3CN(C4=NCCS4)C3)[C@H](C)[C@H]12 [Tebipenem pivoxil (L-084)] | inactive: -0.427 | inactive: 0.216 |
| Nc1ccc(/N=N/c2ccccc2)c(N)n1 [Phenazopyridine HCl] | inactive: -0.425 | inactive: 0.764 |
| CN(C)CCCOc1nn(Cc2ccccc2)c2ccccc12 [Benzydamine Hydrochloride] | inactive: 1.54 | inactive: 0.0485 |
| CS(=O)(=O)c1ccc([C@@H](O)[C@@H](CO)NC(=O)C(Cl)Cl)cc1 [Thiamphenicol (Thiophenicol)] | inactive: 0.0322 | inactive: -0.0743 |
| CC(=O)[C@H]1CC[C@H]2[C@@H]3CC=C4C[C@@H](O)CC[C@]4(C)[C@H]3CC[C@]12C [Pregnenolone] | inactive: -2.02 | inactive: -3.49 |
| CCN(CC)C(=O)/C(C#N)=C/c1cc(O)c(O)c([N+](=O)[O-])c1 [Entacapone] | inactive: -1.02 | inactive: -0.43 |
| CC(=O)Oc1cc(C(F)(F)F)ccc1C(=O)O [Triflusal] | inactive: 1.34 | inactive: 0.32 |
| CO[C@H]1O[C@@H]2O[C@@]3(C)CC[C@H]4[C@H](C)CC[C@@H]([C@H]1C)[C@@]24OO3 [Artemether (SM-224)] | inactive: -0.474 | inactive: -0.572 |

Random excerpt: 2 entries already listed

| Structure (SMILES) | secreted FVIII-Gluc luciferase Z-score (HEK293 WT BDD-FVIII-Gluc) | secreted FVIII-Gluc luciferase Z-score [1] |
| --- | --- | --- |
| CCCN[C@H]1CCc2nc(N)sc2C1 [Pramipexole (Mirapex)] | inactive: -1.76 | inactive: -0.887 |
| Nc1ccc(/N=N/c2ccccc2)c(N)n1 [Phenazopyridine HCl] | inactive: -0.425 | inactive: 0.764 |
